From paper PMC8750385

Target: T1, long chain acyl-CoA dehydrogenase (mouse (endogenous in CGR8-NS neural stem cells)) (UniProt P51174)
T1 sequence: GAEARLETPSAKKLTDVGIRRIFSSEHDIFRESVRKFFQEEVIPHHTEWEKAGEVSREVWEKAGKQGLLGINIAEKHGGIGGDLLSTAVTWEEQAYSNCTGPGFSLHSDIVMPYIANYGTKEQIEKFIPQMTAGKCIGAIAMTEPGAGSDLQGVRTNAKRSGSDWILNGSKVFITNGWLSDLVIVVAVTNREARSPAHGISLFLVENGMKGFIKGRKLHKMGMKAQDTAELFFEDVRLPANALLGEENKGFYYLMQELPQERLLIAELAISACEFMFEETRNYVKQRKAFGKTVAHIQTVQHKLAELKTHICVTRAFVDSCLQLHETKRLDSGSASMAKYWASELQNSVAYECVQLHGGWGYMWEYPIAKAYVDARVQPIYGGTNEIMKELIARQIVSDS
Assay: co-IP; 500 ug whole cell extract of mouse NSCs (lysis buffer 50 mM Tris-HCl pH 7.4, 180 mM NaCl, 1 mM EDTA, 0.5% Triton X-100) incubated overnight at 4 °C with 1 ug rabbit polyclonal antibody to LCAD and Protein G affinity gel; blot probed for LCAD, then SIRT3; IgG immunoprecipitation as control; cells untreated or treated with 50 uM tBHP (2 h/day, 4 days), with control or SIRT3 overexpression plasmid

binding: binds
Substance: Sirtuin 3 (enzyme)

No constants are given. Whether binding was seen depends on the method and setting. In cells and extracts the contact can be indirect. A result given as binding can be weak or reduced; the word gives no strength.
